Laboratory results as given in patent publication US7205002B2, “Method of making, and the use of cytotoxic agents containing elemental selenium” (MCW Research Foundation, Inc., priority 2002, dated 2007).

Assay: Formation of fluorescent photoproduct-protein conjugates (fluorescence emission)
[1] = MC54-derived photoproducts with the given solvent/protein

Compound	Fluorescence [1]	Fluorescence (conjugates formed by photoproducts of the dye, alpha-medium supplemented with 10% fetal bovine serum)
CCO [Ethanol]	no	
CCCCN1C(=O)C(=C/C=C/C=C2\Oc3ccccc3N2CCCS(=O)(=O)[O-])C(=O)N(CCCC)C1=S.[Na+] [MC540]		no
Bovine serum albumin: carrier protein for conjugates with MC54-derived photoproducts	yes	
Carboxymethylated bovine serum albumin: commercial product from Sigma Chemical Co.	yes	
